From patent US12054746B2, “Method for inducing differentiation of pluripotent stem cells into intestinal epithelial cells” (PUBLIC UNIVERSITY CORPORATION NAGOYA CITY UNIVERSITY, priority 2018, dated 2024)

How the values were obtained:
[1] = in vitro; settings: human
Procedure: Human iPS cells (FF-1) were treated with a serum-free medium containing 100 ng/mL activin A for 24 hours to initiate differentiation. […] Thereafter, the cells were cultured in Advanced DMEM/F-12 containing 2% FBS, 1% GlutaMax, 100 units/mL penicillin G, 100 μg/mL streptomycin sulfate, and 250 ng/mL FGF2 for 96 hours to differentiate into small intestine stem cells. The small intestine stem cell-like cells after the treatment with activin A and FGF2 were detached with Aecutase and seeded on GFR Matrigel which was diluted 30-fold with human iPS medium in advance. After seeding, the cells were cultured for 19 to 23 days in Advanced DMEM/F-12 containing 2% FBS, 0.1 mM NEAA, 2 mM L-Glu, 100 units/mL penicillin G, 100 μg/mL streptomycin sulfate, 2% B27 supplement, 1% N2 supplement, 1% HepExtend supplement, 20 ng/mL EGF, and 30 μM Forskolin. From 12 to 16 days before the end of differentiation, differentiation into small intestinal epithelial cells was induced was by adding PD98059 to 20 μM, 5-aza-2′-deoxycytidine (5-aza-2′-dC) to 5 μM, and A-83-01 to 0.5 μM.
HESS (pH 6.5) was added to a chamber on the apical side of human iPS cell-derived small intestinal epithelial cells and Caco-2 cells seeded on Cell culture insert, HBSS (pH 7.4) was added to a chamber on the basal side, and pre-incubated at 37° C. for 60 minutes. […] The unchanged substance was measured using UPLC-MS/MS. […]

[2] = in humans, from References 1 to 6; cited from earlier work
[3] = in vitro; settings: human, Caco-2
Procedure: HESS (pH 6.5) was added to a chamber on the apical side of human iPS cell-derived small intestinal epithelial cells and Caco-2 cells seeded on Cell culture insert, HBSS (pH 7.4) was added to a chamber on the basal side, and pre-incubated at 37° C. for 60 minutes. […] A sample was collected from the receiver chamber every 15 minutes. The unchanged substance was measured using UPLC-MS/MS. Fa·Fg in humans was referred from, previous reports (References 1 to 6 below). • Reference 1: Takenaka T, Harada N, Kuze J, Chiba M, Iwao T, Matsunaga T. Human small intestinal epithelial cells differentiated from adult intestinal stem cells as a novel system for predicting oral drug absorption in humans. Drug Metab Dispos. […] Expert Opin Drug Metab Toxicol.

Papp A→B at 60 min [1]: 23.6 nm/s | Papp A→B at 60 min [3]: 2.3 nm/s
SMILES: CC1=C(C(=O)O)N2C(=O)[C@@H](NC(=O)[C@H](N)c3ccccc3)[C@H]2SC1 [Cephalexin, cephalexin]
Fa · Fg/100 [2]: 0.96
